Measured values from PMC11695938.
No constants are given. Whether binding was seen depends on the method and setting. Binding seen in cells or lysates may run through a third protein.

B1: Integrin αv (ITGAV), in C2C12 cells (receptor, UniProt P43406 31-1044)
chain: FNLDVESPAEYAGPEGSYFGFAVDFFEPSTSSRMFLLVGAPKANTTQPGIVEGGQVLKCECSSSRRCQPIEFDSTGNRDYAKDDPLEFKSHQWFGASVRSKQDKILACAPLYHWRTEMKQEREPVGTCFLQDGTKTVEYAPCRSKNIDADGQGFCQGGFSIDFTKADRVLLGGPGSFYWQGQLISDQVAEIISKYDPNVYSIKYNNQLATRTAQAIFDDSYLGYSVAVGDFNGDGIEDFVSGVPRAARTLGMVYIYDGKNMSSLHNFTGEQMAAYFGFSVAATDINGDDYADVFIGAPLFMDRGSDGKLQEVGQVSVSLQRAVGDFQTTKLNGFEVFARFGSAIAPLGDLDQDGFNDIAIAAPYGGEDKKGLVYIFNGRSTGLNSVPSQILEGQWAAQSMPPSFGYSMKGATDVDRNGYPDLVVGAFGVDRAVLYRARPVVTVNAGLEVYPSILNQDNKICPLPGTALKVSCFNVRFCLKADGKGTLPRKLHFQVELLLDKLKQKGAIRRALFLHNRSPVHSKTMTVFRGGQMQCEELVAYLRDESEFRDKLTPITIFMEYRLDQRTAADATGLQPILNQFTPANVSRQAHILLDCGEDNVCKPKLEVSVNSDQKKIYIGDDNPLTLTVKAQNQGEGAYEAELIVSIPPQADFIGVVRNNEALARLSCAFKTENQTRQVVCDLGNPMKAGTQLLAGLRFSVHQQSEMDTSVKFDLKIQSSNSFDNVSPVVSYKVDLAVLAAVEIRGVSSPDHIFLPIPNWEYKENPETEEDVGPIVQHIYELRNNGPSSFSKAILNLQWPYKYNNNTLLYILHYDIDGPMNCTADTEINPLRIKTPEKNDTAAAGQGERNHLITKRDLTLREGDVHTLGCGIAKCLQITCQVGRLDRGKSAILYVKSLLWTETFMNKENQNHSYSLKSSASFNIIEFPYKNLPIEDLFNSTLVTTNITWGIQPAPMPVPVWVIILAVLAGLLLLAVLVFVMYRMGFFKRVRPPQEEQEREQLQPHENGEGNSET
B2: Integrin αv (ITGAV), in primary myoblasts (receptor, UniProt P43406 31-1044)
chain: B1 chain

Columns and labels:
[1] = target: FNDC1 (His-tagged, expressed in C2C12 cells) (mouse); test: co-IP; C2C12 cells transfected, 48 h after differentiation, lysed; total proteins immunoprecipitated with His or Flag magnetic beads at 4 °C overnight; immunoblot
[2] = target: FNDC1, in primary myoblasts (mouse); test: co-IP; immunoprecipitation in primary myoblasts

binding [1]	binding [2]	Binder
no binding		B1
	no binding	B2
